Experimental data: PubChem BioAssay AID1159584 (Peter MacCallum Cancer Centre, 2016)
Screen: 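Knock-downs that harm CDH1-null cells more than parental MCF10A cells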 (primary screen). Cells: human MCF10A breast epithelial cells, parental and CDH1-null. Reagents: siRNA against human genes. Measured: 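Cell viability by CellTiter-Glo ATP luminescence, each line scaled to the mean of mock wells across plates, then CDH1-null over parental ratio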. Reading the numbers: CDH1-null / parental viability ratio: higher = CDH1-null cells survive relatively better than parental; CDH1-null viability vs mock: higher = more viable CDH1-null cells; parental viability vs mock: higher = more viable parental cells.
In all, the deposit lists about 18,000 reagents; this is a part drawn at random. Not stated in the record: the amount of reagent, the time to read-out.

no.	gene	PubChem SID	CDH1-null / parental viability ratio	CDH1-null viability vs mock (fraction of mock)	parental viability vs mock (fraction of mock)
1	GUCY2C	SID152148747	0.95	1.06	1.12
2	ETFBKMT	SID134322249	0.92	0.66	0.72
3	IL1R1	SID134310793	1.58	1.06	0.67
4	CLEC17A	SID135625078	0.74	0.52	0.7
5	XKRYP7	SID134329817	0.62	0.38	0.61
6	RHNO1	SID152147587	0.86	0.64	0.74
7	ZNF141	SID134323539	1.35	0.84	0.62
8	CSF2RB	SID134312803	1.19	0.94	0.79
9	TRIM69	SID152153568	0.78	0.51	0.65
10	ATP5MG	SID135623431	1.33	0.6	0.45
11	DGUOK	SID152155858	1	0.76	0.76
12	CRYBB3	SID152150663	1.09	0.72	0.66
13	DAG1	SID152149869	1.07	0.98	0.92
14	MAST3	SID152151496	0.82	0.75	0.92
15	NRG4	SID152150417	0.98	0.94	0.96
16	OR4C45	SID134329945	1.09	0.89	0.82
17	ZP2	SID134315745	1.08	0.93	0.86
18	RASIP1	SID134324437	1.02	0.48	0.47
19	ZNF580	SID135624112	0.81	0.51	0.63
20	CCND3	SID56478573	0.99	0.66	0.67
21	MMP20	SID134311385	0.9	0.82	0.91
22	ARSA	SID152151847	1.1	0.68	0.62
23	XPA	SID152153264	0.94	0.77	0.82
24	CD302	SID134322741	1.06	1	0.94
25	TM6SF2	SID152151821	1.04	0.52	0.5
26	NKAIN4	SID135622948	1.53	1.07	0.7
27	RPUSD3	SID152155487	1.2	0.66	0.55
28	ZNF688	SID135621323	0.69	0.55	0.8
29	LDAH	SID152147653	1.04	1.21	1.16
30	MTERF2	SID152147402	0.93	0.8	0.86
31	ZFYVE1	SID134317323	1.04	1.04	1
32	CHN1	SID152151314	1.23	0.76	0.62
33	PHF19	SID135624540	0.9	0.92	1.02
34	BCORL1	SID152150548	0.92	0.9	0.98
35	ANAPC13	SID152150671	0.9	0.94	1.04
36	B3GAT3	SID152148805	0.84	0.69	0.82
37	PRSS57	SID152154682	1.1	0.66	0.6
38	KRT32	SID152147823	1.4	0.74	0.53
39	GMPR2	SID152154108	0.96	0.5	0.52
40	CAMSAP2	SID134325282	0.86	0.8	0.93
41	NR0B2	SID135620669	0.98	1.04	1.06
42	SDF2	SID134317727	0.98	0.5	0.51
43	ING1	SID135621210	1.02	0.98	0.96
44	MRPL30	SID152154192	0.79	0.52	0.66
45	DTX4	SID152152790	0.95	0.93	0.98
46	ARV1	SID134318392	1.02	0.88	0.86
47	VPS26B	SID152154325	0.9	0.96	1.07
48	FOXD1	SID152148203	0.95	0.7	0.74
49	CR1	SID152156022	1.02	0.88	0.86
50	CADPS2	SID152153045	0.89	0.57	0.64
51	C1QL2	SID135623585	1.02	0.96	0.94
52	DPP10	SID135621684	1.09	0.84	0.77
53	RPL17	SID152155747	1.19	1.02	0.86
54	CGB8	SID152147808	0.77	0.48	0.62
55	HORMAD2	SID152154969	1.04	1.02	0.98
56	ADAM20	SID152151134	1.11	0.98	0.88
57	RAD51	SID152154288	0.85	0.51	0.6
58	SYNM	SID152151147	1.32	0.5	0.38
59	XKR7	SID135624448	0.93	1.04	1.12
60	AGFG2	SID152147679	1.35	0.88	0.65
61	MAGT1	SID135623473	0.88	0.81	0.92
62	NLN	SID152150314	1.15	0.78	0.68
63	PTH	SID135622337	1.06	1.15	1.08
64	CCNT2	SID56478582	0.97	0.67	0.69
65	USP26	SID134311496	1.09	0.76	0.7
66	CCL21	SID152156291	1.27	0.61	0.48
67	MYBPHL	SID152155778	0.82	0.61	0.74
68	U2SURP	SID135624389	0.91	0.75	0.82
69	AQP1	SID152152386	0.98	0.57	0.58
70	PLEKHM3	SID135624742	1.01	0.76	0.75
71	LAMP2	SID134316036	0.98	0.97	0.99
72	GKN1	SID152153559	0.97	0.68	0.7
73	RBFA	SID134318607	0.67	0.4	0.6
74	CAMKK2	SID135620895	1.05	1.02	0.97
75	TAMM41	SID152156446	1.13	1.02	0.9
76	COX10	SID134317263	0.83	0.79	0.95
77	NDUFB9	SID152153945	0.75	0.69	0.92
78	OR5M11	SID134329892	1.26	0.92	0.73
79	DENR	SID135622348	1.04	0.94	0.9
80	YBX3	SID134319817	0.75	0.55	0.73
81	DNAH12	SID135624662	1.48	0.71	0.48
82	LENEP	SID152155909	1.24	0.88	0.71
83	PPP3CA	SID152148412	1.42	0.81	0.57
84	AIPL1	SID152147318	0.82	0.74	0.9
85	PLAGL2	SID152147025	1.26	0.98	0.78
86	NLGN4X	SID134314863	0.81	0.59	0.73
87	TMEM217	SID134322593	1.02	0.45	0.44

11 entries from above, reduced to “CDH1-null viability vs mock (fraction of mock)”:
MAST3 [SID152151496] = 0.75
NRG4 [SID152150417] = 0.94
OR4C45 [SID134329945] = 0.89
ZP2 [SID134315745] = 0.93
RASIP1 [SID134324437] = 0.48
ZNF580 [SID135624112] = 0.51
CCND3 [SID56478573] = 0.66
MMP20 [SID134311385] = 0.82
ARSA [SID152151847] = 0.68
XPA [SID152153264] = 0.77
CD302 [SID134322741] = 1
